Measurements: US20240270820A1 (ELANCO US, published 2024)
Results are given in words; binding and its absence hold for the method and conditions named. Some results given as binding are weak or reduced against the parent protein; the word gives no strength. Where a sequence is shown, tags or fusion partners need not be part of it.

Legend:
[1] = molecular target: T1, canine IL4 with C-terminal poly-His tag (canine) (UniProt O77762); assay: BLI (Octet), summary sentence of Example 4
T1 sequence: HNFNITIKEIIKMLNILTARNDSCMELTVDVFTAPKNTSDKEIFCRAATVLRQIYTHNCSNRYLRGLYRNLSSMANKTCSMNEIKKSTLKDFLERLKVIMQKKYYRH

[2] = molecular target: T1, canine IL4 with C-terminal poly-His tag (canine); assay: BLI (Octet)
[3] = molecular target: T1, canine IL4 with C-terminal poly-His tag (canine); assay: BLI sequential binding; biotinylated fusion on streptavidin tips, IL4 at 30 µg/mL in PBS

Measured: binding

B1: canine IL13R-IL4R-IgGB (Fc fusion)
chain: TETQPPVTNLSVSVENLCTVIWTWDPPEGASPNCTLRYFSHFDNKQDKKIAPETHRSKEVPLNERICLQVGSQCSTNESDNPSILVEKCTPPPEGDPESAVTELQCVWHNLSYMKCTWLPGRNTSPDTNYTLYYWHSSLGKILQCEDIYREGQHIGCSFALTNLKDSSFEQHSVQIVVKDNAGKIRPSFNIVPLTSHVKPDPPHIKRLFFQNGNLYVQWKNPQNFYSRCLSYQVEVNNSQTETNDIFYVEEAKCQNSEFEGNLEGTICFMVPGVLPDTLNTVRIRVRTNKLCYEDDKLWSNWSQAMSIGENTDPTGGGSGSGSVKVLHEPSCFSDYISTSVCQWKMDHPTNCSAELRLSYQLDFMGSENHTCVPENREDSVCVCSMPIDDAVEADVYQLDLWAGQQLLWSGSFQPSKHVKPRTPGNLTVHPNISHTWLLMWTNPYPTENHLHSELTYMVNVSNDNDPEDFKVYNVTYMGPTLRLAASTLKSGASYSARVRAWAQTYNSTWSDWSPSTTWLNYYEPKRENGRVPRPPDCPKCPAPEMLGGPSVFIFPPKPKDTLLIARTPEVTCVVVDLDPEDPEVQISWFVDGKQMQTAKTQPREEQFNGTYRVVSVLPIGHQDWLKGKQFTCKVNNKALPSPIERTISKARGQAHQPSVYVLPPSREELSKNTVSLTCLIKDFFPPDIDVEWQSNGQQEPESKYRTTPPQLDEDGSYFLYSKLSVDKSRWQRGDTFICAVMHEALHNHYTQESLSHSPGK
notes: also called Canis lupus IL13R-IL4R-Fc; canine IL13R-IL4R-Fc
binds: [1] | [2] | [3]

B2: canine IL4R-IL13R-IgGB (Fc fusion)
chain: SGSVKVLHEPSCFSDYISTSVCQWKMDHPTNCSAELRLSYQLDFMGSENHTCVPENREDSVCVCSMPIDDAVEADVYQLDLWAGQQLLWSGSFQPSKHVKPRTPGNLTVHPNISHTWLLMWTNPYPTENHLHSELTYMVNVSNDNDPEDFKVYNVTYMGPTLRLAASTLKSGASYSARVRAWAQTYNSTWSDWSPSTTWLNYYEPGGGSGTETQPPVTNLSVSVENLCTVIWTWDPPEGASPNCTLRYFSHFDNKQDKKIAPETHRSKEVPLNERICLQVGSQCSTNESDNPSILVEKCTPPPEGDPESAVTELQCVWHNLSYMKCTWLPGRNTSPDTNYTLYYWHSSLGKILQCEDIYREGQHIGCSFALTNLKDSSFEQHSVQIVVKDNAGKIRPSFNIVPLTSHVKPDPPHIKRLFFQNGNLYVQWKNPQNFYSRCLSYQVEVNNSQTETNDIFYVEEAKCQNSEFEGNLEGTICFMVPGVLPDTLNTVRIRVRTNKLCYEDDKLWSNWSQAMSIGENTDPTPKRENGRVPRPPDCPKCPAPEMLGGPSVFIFPPKPKDTLLIARTPEVTCVVVDLDPEDPEVQISWFVDGKQMQTAKTQPREEQFNGTYRVVSVLPIGHQDWLKGKQFTCKVNNKALPSPIERTISKARGQAHQPSVYVLPPSREELSKNTVSLTCLIKDFFPPDIDVEWQSNGQQEPESKYRTTPPQLDEDGSYFLYSKLSVDKSRWQRGDTFICAVMHEALHNHYTQESLSHSPGK
notes: also called canine IL4R-IL13R-Fc; Canine IL4R-IL13R-Fc (SINK)
binds: [1] | [2] | [3]
